Test results published in publication PMC9238395, “Identification and Tetramer Structure of Hemin-Binding Protein SPD_0310 Linked to Iron Homeostasis and Virulence of Streptococcus pneumoniae” (mSystems, 2022).
Results are given in words; binding and its absence hold for the method and conditions named.

By UniProt entry, the sequences of proteins in these tests, tags left out. Residues count along the entry.
UniProt P02769, residues 25-607: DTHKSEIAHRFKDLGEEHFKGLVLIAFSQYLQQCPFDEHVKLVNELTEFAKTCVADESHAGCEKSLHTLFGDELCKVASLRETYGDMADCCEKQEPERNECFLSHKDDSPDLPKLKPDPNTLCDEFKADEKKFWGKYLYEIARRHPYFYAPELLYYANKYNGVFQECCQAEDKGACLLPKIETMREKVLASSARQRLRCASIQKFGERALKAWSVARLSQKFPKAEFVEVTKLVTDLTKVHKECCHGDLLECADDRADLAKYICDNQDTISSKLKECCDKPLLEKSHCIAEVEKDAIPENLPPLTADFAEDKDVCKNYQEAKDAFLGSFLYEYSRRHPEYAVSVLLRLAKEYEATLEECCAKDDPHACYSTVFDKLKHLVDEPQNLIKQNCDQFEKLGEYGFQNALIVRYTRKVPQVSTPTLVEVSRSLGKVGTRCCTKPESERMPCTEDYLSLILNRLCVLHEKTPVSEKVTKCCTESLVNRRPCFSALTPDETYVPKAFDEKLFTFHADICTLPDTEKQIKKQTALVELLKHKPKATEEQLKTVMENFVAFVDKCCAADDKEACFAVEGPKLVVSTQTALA

T1: SPD_0310 (S. pneumoniae D39) (UniProt Q04MC1)
T1 sequence: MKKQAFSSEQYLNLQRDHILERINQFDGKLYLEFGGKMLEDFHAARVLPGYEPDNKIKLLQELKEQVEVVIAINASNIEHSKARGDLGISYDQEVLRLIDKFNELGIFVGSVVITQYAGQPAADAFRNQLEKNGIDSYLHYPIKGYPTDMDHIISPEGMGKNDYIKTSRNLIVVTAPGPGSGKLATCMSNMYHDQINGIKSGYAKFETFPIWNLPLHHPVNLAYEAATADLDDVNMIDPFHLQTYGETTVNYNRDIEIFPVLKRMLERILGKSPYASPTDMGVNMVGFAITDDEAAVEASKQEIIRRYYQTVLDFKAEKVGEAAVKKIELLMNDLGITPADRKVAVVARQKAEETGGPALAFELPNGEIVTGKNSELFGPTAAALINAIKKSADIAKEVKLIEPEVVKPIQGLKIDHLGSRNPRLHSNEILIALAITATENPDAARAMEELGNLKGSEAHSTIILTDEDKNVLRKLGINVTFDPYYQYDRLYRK

B1: SPD_0310 (natural protein)
chain: T1 sequence
notes: SPD_0310, hypothetical protein of the UPF0371 family, S. pneumoniae D39; spd_0310 gene cloned from genomic DNA into pGEX-4T-1 (BamH I/Sal I); Homotetramer by crystal structure and DLS; also called apo-0310; apo-SPD_0310

How the values were obtained:
[1] = molecular target: T1, SPD_0310 (S. pneumoniae D39); assay: SPR; OpenSPR; SPD_0310 immobilised on a gold nanoparticle COOH sensor chip; analytes in 1× PBS, 30 μL/min; regeneration with 0.5 to ~10 mM HCl; 1:1 model; both purified
[2] = molecular target: T1, SPD_0310 (S. pneumoniae D39); assay: dynamic light scattering; SPD_0310 in 1× PBS with 10% SDS, 25°C; both purified

Molecule	binding [1]	binding [2]
bovine serum albumin (from UniProt P02769 25-607)	no binding	
B1		no binding (condition: with 10% SDS)
